Data published in patent US20260193226A1, “MICROBIOCIDAL TETRAHYDROISOQUINOLINE DERIVATIVES” (SYNGENTA CROP PROTECTION AG, priority 2022, published 2026).
Some results were stated once for a whole list of compounds, not compound by compound.

test system: Fusarium culmorum; assay type: cell-based; conditions: 20 ppm; liquid culture; compared to untreated control

Row | Compound | control of Fusarium culmorum
1 | Cc1c(C2CN(C(=O)CCc3ccc(Cl)cc3)Cc3ccccc32)cnn1C (stereo not shown) [Compound P-22, 3-(4-chlorophenyl)-1-[4-(1,5-dimethylpyrazol-4-yl)-3,4-dihydro-1H-isoquinolin-2-yl]propan-1-one] | at least 80%
2 | Cc1c([C@H]2CN(C(=O)CCCCC3CC3)[C@@H](C)c3ccccc32)cnn1C [Compound P-47, 5-cyclopropyl-1-[(1S,4S)-4-(1,5-dimethylpyrazol-4-yl)-1-methyl-3,4-dihydro-1H-isoquinolin-2-yl]pentan-1-one] | at least 80%
3 | CCCCCCC(=O)N1Cc2ccccc2C(c2cnn(C)c2C)C1 (stereo not shown) [Compound P-4, 1-[4-(1,5-dimethylpyrazol-4-yl)-3,4-dihydro-1H-isoquinolin-2-yl]heptan-1-one] | at least 80%
4 | CCCCCOC(=O)N1C[C@H](c2cnn(C)c2C)c2ccccc2[C@@H]1C (racemic) [Compound P-28, pentyl rac-(1S,4S)-4-(1,5-dimethylpyrazol-4-yl)-1-methyl-3,4-dihydro-1H-isoquinoline-2-carboxylate] | at least 80%
5 | CCCCCCC(=O)N1C[C@H](c2cnn(C)c2C)c2ccccc2[C@@H]1C (racemic) [Compound P-11, 1-[rac-(1S,4S)-4-(1,5-dimethylpyrazol-4-yl)-1-methyl-3,4-dihydro-1H-isoquinolin-2-yl]heptan-1-one] | at least 80%
6 | Cc1c([C@H]2CN(C(=O)CCCCCC(F)(F)F)[C@@H](C)c3ccccc32)cnn1C (racemic) [Compound P-29, 7,7,7-trifluoro-1-[rac-(1S,4S)-4-(1,5-dimethylpyrazol-4-yl)-1-methyl-3,4-dihydro-1H-isoquinolin-2-yl]heptan-1-one] | at least 80%
7 | Cc1c([C@H]2CN(C(=O)CCCCCC(F)F)[C@@H](C)c3ccccc32)cnn1C [Compound P-46, 1-[(1S,4S)-4-(1,5-dimethylpyrazol-4-yl)-1-methyl-3,4-dihydro-1H-isoquinolin-2-yl]-7,7-difluoro-heptan-1-one] | at least 80%
